Reference: patent US20250154235A1
Results are given in words; binding and its absence hold for the method and conditions named.

Assays:
C9ORF72 [1] = test: direct ELISA on coated proteins, antibody at 4 nM, fold over background
HTT [2] = test: as above
IAPP [3] = test: as above
TDP-43 [4] = test: as above
Tau [5] = test: as above
C9ORF72 [6] = test: direct ELISA on coated proteins, antibody at 20 nM, fold over background
HTT [7] = test: as above
IAPP [8] = test: as above
TDP-43 [9] = test: as above
Tau [10] = test: as above

B1: NI-301.44E4 (antibody, V domains shown)
VH: EVQLVESGGGLVQPGGSLRLSCAASGFTFSSYAMIWVRQAPGKGLEWVSGISGSGSTTYYADSVKGRFAISRDKSKNTLSLQMNSLRAEDTAVYYCAKGAWEIPTYFDNWGQGTLVTVSS
VL: EIVLTQSPATLSVSPGERATLSCRASQSIRNNLAWYQQKPGQAPRLLIYGASTRATGIPARFSGTGSGTEFTLIVSSLQSEDFAVYYCQQYNNWPPTWTFGQGTKVEIK
**Q.** How did the binding (C9ORF72 [1]) turn out when B1 was run?
**A.** The binding was “no binding (tested: 4 nM)”.

**Q.** And the binding (HTT [2])?
**A.** Its binding is “no binding (tested: 4 nM)”.

**Q.** And the binding (IAPP [3])?
**A.** Its binding is “no binding (tested: 4 nM)”.

**Q.** What about the binding (TDP-43 [4]) of the same binder?
**A.** The binding was “no binding (tested: 4 nM)”.

**Q.** What about the binding (Tau [5]) of the same binder?
**A.** Its binding is “no binding (tested: 4 nM)”.

**Q.** And the binding (C9ORF72 [6])?
**A.** Its binding is “no binding (tested: 20 nM)”.

**Q.** And the binding (HTT [7])?
**A.** The binding was “no binding (tested: 20 nM)”.

**Q.** What about the binding (IAPP [8]) of the same binder?
**A.** The binding was “no binding (tested: 20 nM)”.

**Q.** What about the binding (TDP-43 [9]) of the same binder?
**A.** The binding was “no binding (tested: 20 nM)”.

**Q.** What about the binding (Tau [10]) of the same binder?
**A.** The binding was “no binding (tested: 20 nM)”.
